PubChem BioAssay AID1053208, Peter MacCallum Cancer Centre | 2014
Aim: 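Genes whose silencing cuts survival of bone tumour cells only with doxorubicin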 (primary screen). Cells: mouse osteosarcoma cells, early-passage culture from an engineered mouse model of fibroblastic bone tumour. Reagent: siRNA pool against mouse genes, 40 nM. Duration: about 120 h (48 h before drug, then 72 h with drug). Challenge: doxorubicin 100 nM for 72 h, roughly 30-40% inhibitory dose. Measured: 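Viability read as ATP luminescence after 72 h of 100 nM doxorubicin or none, duplicate wells averaged, scaled to non-targeting siRNA, then expressed as robust z-scores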. Direction: viability z-score with doxorubicin: higher = more viable cells under doxorubicin; viability z-score without drug: higher = more viable cells with knock-down alone. Active means: 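a pool counts as active when its viability z-score with doxorubicin is -2 or below and its z-score without drug lies between -2 and 2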.
The whole screen tested about 17,000 reagents; this is a random part of them. 788 of them (4.7%) count as active. 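Calls rest on z-score classes alone; an extra cut-off of viability at most 70% of control was not applied to them.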 A number with no mark means an inactive call. Further read-outs or replicates are left out here.

{"gene knocked down": "Fbxo42 (F-box protein 42)", "combined z-score class": "low cell count without drug only", "viability z-score with doxorubicin": -1.57, "viability z-score without drug": -2.19}
{"gene knocked down": "Nlrp5 (NLR family, pyrin domain containing 5)", "combined z-score class": "no change with or without drug", "viability z-score with doxorubicin": -0.45, "viability z-score without drug": 0.84}
{"gene knocked down": "Zbtb8os (zinc finger and BTB domain containing 8 opposite strand)", "combined z-score class": "no change with or without drug", "viability z-score with doxorubicin": -0.9, "viability z-score without drug": -0.17}
{"gene knocked down": "Lrfn3", "combined z-score class": "no change with or without drug", "viability z-score with doxorubicin": -1.12, "viability z-score without drug": -1.01}
{"gene knocked down": "Or10v1 (olfactory receptor family 10 subfamily V member 1)", "combined z-score class": "no change with or without drug", "viability z-score with doxorubicin": -1.91, "viability z-score without drug": -0.84}
{"gene knocked down": "Fgfr1op2 (FGFR1 oncogene partner 2)", "combined z-score class": "no change with or without drug", "viability z-score with doxorubicin": 0.34, "viability z-score without drug": 1.18}
{"gene knocked down": "5330431K02Rik (RIKEN cDNA 5330431K02 gene)", "combined z-score class": "no change with or without drug", "viability z-score with doxorubicin": 0.9, "viability z-score without drug": 0.34}
{"gene knocked down": "Rcl1 (RNA terminal phosphate cyclase-like 1)", "combined z-score class": "no change with or without drug", "viability z-score with doxorubicin": 0.45, "viability z-score without drug": -1.85}
{"gene knocked down": "Pias3 (protein inhibitor of activated STAT 3)", "combined z-score class": "no change with or without drug", "viability z-score with doxorubicin": -0.79, "viability z-score without drug": -1.52}
{"gene knocked down": "Tnfrsf23 (tumor necrosis factor receptor superfamily, member 23)", "combined z-score class": "no change with or without drug", "viability z-score with doxorubicin": -1.12, "viability z-score without drug": -0.17}
{"gene knocked down": "Arhgef10 (Rho guanine nucleotide exchange factor 10)", "combined z-score class": "no change with or without drug", "viability z-score with doxorubicin": -0.22, "viability z-score without drug": 0.84}
{"gene knocked down": "Il22ra1 (interleukin 22 receptor, alpha 1)", "combined z-score class": "no change with or without drug", "viability z-score with doxorubicin": -0.9, "viability z-score without drug": -1.52}
{"gene knocked down": "Gtf2ird1 (general transcription factor II I repeat domain-containing 1)", "combined z-score class": "no change with or without drug", "viability z-score with doxorubicin": 0.22, "viability z-score without drug": -1.18}
{"gene knocked down": "Setmar (SET domain without mariner transposase fusion)", "combined z-score class": "no change with or without drug", "viability z-score with doxorubicin": -0.67, "viability z-score without drug": -1.18}
{"gene knocked down": "Adrm1", "combined z-score class": "no change with or without drug", "viability z-score with doxorubicin": -0.9, "viability z-score without drug": -0.17}
{"gene knocked down": "Prpf4 (pre-mRNA processing factor 4)", "combined z-score class": "no change with or without drug", "viability z-score with doxorubicin": -0.22, "viability z-score without drug": 0.17}
{"gene knocked down": "Nkd1 (naked cuticle 1)", "combined z-score class": "no change with or without drug", "viability z-score with doxorubicin": -0.22, "viability z-score without drug": -0.84}
{"gene knocked down": "Drc4 (dynein regulatory complex subunit 4)", "combined z-score class": "no change with or without drug", "viability z-score with doxorubicin": 0, "viability z-score without drug": -1.85}
{"gene knocked down": "Slc26a3", "combined z-score class": "no change with or without drug", "viability z-score with doxorubicin": 0.34, "viability z-score without drug": 1.18}
{"gene knocked down": "Prdm16 (PR domain containing 16)", "combined z-score class": "no change with or without drug", "viability z-score with doxorubicin": 1.46, "viability z-score without drug": 1.85}
{"gene knocked down": "Prss58 (serine protease 58)", "combined z-score class": "no change with or without drug", "viability z-score with doxorubicin": 0.9, "viability z-score without drug": 0.34}
{"gene knocked down": "Cfd (complement factor D)", "combined z-score class": "no change with or without drug", "viability z-score with doxorubicin": 0.56, "viability z-score without drug": 0.84}
{"gene knocked down": "BC023105 (cDNA sequence BC023105)", "combined z-score class": "no change with or without drug", "viability z-score with doxorubicin": 0.22, "viability z-score without drug": 1.01}
{"gene knocked down": "Adgra3 (adhesion G protein-coupled receptor A3)", "combined z-score class": "no change with or without drug", "viability z-score with doxorubicin": 0.45, "viability z-score without drug": -1.18}

Records above whose gene name starts with F or f:
{"gene knocked down": "Fbxo42 (F-box protein 42)", "combined z-score class": "low cell count without drug only", "viability z-score with doxorubicin": -1.57, "viability z-score without drug": -2.19}
{"gene knocked down": "Fgfr1op2 (FGFR1 oncogene partner 2)", "combined z-score class": "no change with or without drug", "viability z-score with doxorubicin": 0.34, "viability z-score without drug": 1.18}

The list goes on.
{"gene knocked down": "Afmid (arylformamidase)", "combined z-score class": "no change with or without drug", "viability z-score with doxorubicin": 0.11, "viability z-score without drug": -0.84}
{"gene knocked down": "Lcorl (ligand dependent nuclear receptor corepressor-like)", "combined z-score class": "no change with or without drug", "viability z-score with doxorubicin": 1.35, "viability z-score without drug": -0.51}
{"gene knocked down": "Utp20 (UTP20 small subunit processome component)", "combined z-score class": "low cell count with and without drug", "viability z-score with doxorubicin": -2.47, "viability z-score without drug": -2.19}
{"gene knocked down": "Clstn2 (calsyntenin 2)", "combined z-score class": "no change with or without drug", "viability z-score with doxorubicin": 0.22, "viability z-score without drug": -0.84}
{"gene knocked down": "Lcp2 (lymphocyte cytosolic protein 2)", "combined z-score class": "no change with or without drug", "viability z-score with doxorubicin": -0.79, "viability z-score without drug": -0.84}
{"gene knocked down": "Cacna2d3 (calcium channel, voltage-dependent, alpha2/delta subunit 3)", "combined z-score class": "no change with or without drug", "viability z-score with doxorubicin": -1.35, "viability z-score without drug": -0.34}
{"gene knocked down": "Piwil1 (piwi-like RNA-mediated gene silencing 1)", "combined z-score class": "no change with or without drug", "viability z-score with doxorubicin": 0.34, "viability z-score without drug": 0.84}
{"gene knocked down": "Smyd3 (SET and MYND domain containing 3)", "combined z-score class": "no change with or without drug", "viability z-score with doxorubicin": 0.45, "viability z-score without drug": 1.52}
{"gene knocked down": "Sypl2 (synaptophysin like 2)", "combined z-score class": "low cell count with doxorubicin only (active)", "viability z-score with doxorubicin": -2.02, "viability z-score without drug": -1.52}
{"gene knocked down": "6030443O07RIK", "combined z-score class": "no change with or without drug", "viability z-score with doxorubicin": -0.9, "viability z-score without drug": 1.52}
{"gene knocked down": "Cep43 (centrosomal protein 43)", "combined z-score class": "no change with or without drug", "viability z-score with doxorubicin": -0.56, "viability z-score without drug": 0.84}
{"gene knocked down": "Bcl2l11 (BCL2 like 11)", "combined z-score class": "no change with or without drug", "viability z-score with doxorubicin": 1.24, "viability z-score without drug": -0.84}
